Assay results from US20210206856A1.
Where a chain is given by its changes, count along the chain named. Results are given in words; binding and its absence hold for the method and conditions named. Some binding calls cover weakened binding; strength is not graded here.

Sequences of proteins named here, by UniProt entry; tags and fusion partners are left off. Residues count along the entry.
UniProt Q13477, residues 19-317: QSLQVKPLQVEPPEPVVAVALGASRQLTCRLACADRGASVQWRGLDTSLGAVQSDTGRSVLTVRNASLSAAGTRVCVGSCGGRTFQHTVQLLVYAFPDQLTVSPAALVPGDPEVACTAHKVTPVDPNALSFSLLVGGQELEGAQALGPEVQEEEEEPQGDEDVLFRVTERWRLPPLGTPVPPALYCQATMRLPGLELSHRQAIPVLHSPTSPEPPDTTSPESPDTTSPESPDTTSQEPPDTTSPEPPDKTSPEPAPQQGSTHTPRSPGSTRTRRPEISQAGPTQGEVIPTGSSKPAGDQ
UniProt Q61826, residues 22-365: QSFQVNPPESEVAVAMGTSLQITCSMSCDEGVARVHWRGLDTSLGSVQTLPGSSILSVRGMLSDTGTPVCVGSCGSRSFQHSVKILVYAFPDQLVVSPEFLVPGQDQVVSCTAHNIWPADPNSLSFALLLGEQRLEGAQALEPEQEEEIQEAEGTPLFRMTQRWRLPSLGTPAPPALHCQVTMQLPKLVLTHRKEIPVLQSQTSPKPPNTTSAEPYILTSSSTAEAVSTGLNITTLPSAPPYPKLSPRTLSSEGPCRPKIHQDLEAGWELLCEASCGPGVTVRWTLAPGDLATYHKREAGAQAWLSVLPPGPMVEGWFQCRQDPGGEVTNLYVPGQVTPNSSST

B1: MAdCAM Antibody Table 2 Clone 74 (antibody, human IgG1, V domains shown)
VH: QVQLVQSGAEVKKPGASVKVSCKASGYTFTGYYMHWVRQAPGQGLEWMGIINPSGGNTKYAQKFQGRVTMTRDTSTSTVYMELSSLRSEDTAVYYCTTADYYYYMDVWGKGTTVTVSS
VL: DIQMTQSPSSLSASVGDRVTITCRASQGISNYLAWYQQKPGKAPKLLIYAASSLQSGVPSRFSGSGSGTDFTLTISSLQPEDFATYYCQQYYSNADFGQGTKVEIK
B2: MAdCAM Antibody Table 1 Clone 59 (scFv)
scFv: EVQLLESGGGLVQPGGSLRLSCAASGFTFSDFWMHWVRQAPGKGLEWISYISGDSGYTNYADSVKGRFTISRDNSKNTLYLQMNSLRAEDTAVYYCARDRPYYYYMDVWGKGTTVTVSSGGGGSGGGGSGGGGSGGGGSDIQMTQSPSSLSASVGDRVTITCRASQSVSRSLAWYQQKPGKAPKLLIYAASSLQSGVPSRFSGSGSGTDFTLTISSLQPEDFATYYCQQYKSYPVTFGQGTKVEIK
B3: MAdCAM Antibody Table 1 Clone 6 (scFv)
scFv: EVQLLESGGGLVQPGGSLRLSCAASGFTFNNYAFHWVRQAPGKGLEWVSRINSYGTSTTYADSVKGRFTISRDNSKNTLYLQMNSLRAEDTAVYYCAREGPVAGYWYFDLWGQGTLVTVSSGGGGSGGGGSGGGGSGGGGSDIQMTQSPSSLSASVGDRVTITCRASQIIGTNLAWYQQKPGKAPKLLIYGASSLQSGVPSRFSGSGSGTDFTLTISSLQPEDFATYYCQQSYRLPFTFGQGTKVEIK
B4: MAdCAM Antibody Table 2 Clone 83 (antibody, human IgG1, V domains shown)
VH: EVQLLESGGGLVQPGGSLRLSCAASGFTFSSYWMHWVRQAPGKGLEWVAAISYDGKYKDYEDSVKGRFTISRDNSKNTLYLQMNSLRAEDTAVYYCARENKQWLASFDYWGQGTLVTVSS
VL: DIQMTQSPSSLSASVGDRVTITCQASQDISNFVNWYQQKPGKAPKLLIYAANLRSGVPSRFSGSGSGTDFTLTISSLQPEDFATYYCQQANSFPVTFGPGTKVDIK
B5: MAdCAM Antibody Table 2 Clone 60 (antibody, human IgG1, V domains shown)
VH: EVQLLESGGGLVQPGGSLRLSCAASGFTFSDHGMHWVRQAPGKGLEWVSVIYGGESTYYADSVKGRFTISRDNSKNTLYLQMNSLRAEDTAVYYCARDPAVAGGGIFDYWGQGTLVTVSS
VL: DIQMTQSPSSLSASVGDRVTITCRASQGISNYLAWYQQKPGKAPKLLIYDASNLETGVPSRFSGSGSGTDFTLTISSLQPEDFATYYCQQSYSTCYTFGQGTKLEIK
B6: MAdCAM Antibody Table 2 Clone 82 (antibody, human IgG1, V domains shown)
VH: QVQLVQSGAEVKKPGASVKVSCKASGYTFTRHWIHWVRQAPGQGLEWMGWINVKTGGAGYAQKFQGRVTMTRDTSTSTVYMELSSLRSEDTAVYYCARESSGWYGTDVWGQGTTVTVSS
VL: DIQMTQSPSSLSASVGDRATITCRASQSISNYLAWYQQKPGKAPKLLIYAASSLQSGVPSRFSGSGSGTDFTLTISSLQPEDFATYYCQQSNSFPLTFGGGTKVEIK
B7: MAdCAM Antibody Table 2 Clone 63 (antibody, human IgG1, V domains shown)
VH: EVQLLESGGGLVQPGGSLRLSCAASGFTFNNYGMNWVRQAPGKGLEWVSRINSDGSSTSYADSVKGRFTISRDNSKNTLYLQMNSLRAEDTAVYYCARGAYYYYYMDVWGQGTLVTVSS
VL: EIVMTQSPATLSVSPGERATLSCRASQSVSGSYLAWYQQKPGQAPRLLIYATSSRASGIPARFSGSGSGTEFTLTISSLQSEDFAVYYCQQYYSGLTFGQGTKVEIK
B8: MAdCAM Antibody Table 1 Clone 1 (scFv)
scFv: EVQLLESGGGLVQPGGSLRLSCAASGFTFSSYGMHWVRQAPGKGLEWVAVISDDGSDKYYADSVKGRFTISRDNSKNTLYLQMNSLRAEDTAVYYCTTSKYYYYYGMDVWGQGTTVTVSSGGGGSGGGGSGGGGSGGGGSDIQMTQSPSSLSASVGDRVTITCQASQDISKSLNWYQQKPGKAPKLLIYAASSLQSGVPSRFSGSGSGTDFTLTISSLQPEDFATYYCQQGYSTPLTFGGGTKVEIK
B9: MAdCAM Antibody Table 2 Clone 65 (antibody, human IgG1, V domains shown)
VH: QVQLVQSGAEVKKPGASVKVSCKASGYTFTSYDINWVRQAPGQGLEWMGWMNPNSGNTGYAQKFQGRVTMTRDTSTSTVYMELSSLRSEDTAVYYCAKDSDYSNLLWDYWGQGTLVTVSS
VL: DIQMTQSPSSLSASVGDRVTITCRASQDITNDLGWYQQKPGKAPKLLIYQASSLESGVPSRFSGSGSGTDFTLTISSLQPEDFATYYCQQSYTIPLTFGQGTKVEIK
B10: MAdCAM Antibody Table 2 Clone 76 (antibody, human IgG1, V domains shown)
VH: EVQLLESGGGLVQPGGSLRLSCAASGFTFDDYTMHWVRQAPGKGLEWVSDISGSGGSTYYADSVKGRFTISRDNSKNTLYLQMNSLRAEDTAVYYCAKDVVVAGTPLHFDYWGQGTLVTVSS
VL: DIQMTQSPSSLSASVGDRVTITCQASQDISNYLNWYQQKPGKAPKLLIYAASYLQSGVPSRFSGSGSGTDFTLTISSLQPEDFATYYCQQAHNYPITFGQGTRLEIK
B11: MAdCAM Antibody Table 2 Clone 84 (antibody, human IgG1, V domains shown)
VH: QVQLVQSGAEVKKPGASVKVSCKASGGTFSSSAISWVRQAPGQGLEWMGWISAYNGYTNYAQKFQGRVTMTRDTSTSTVYMELSSLRSEDTAVYYCASRVHSGGSYPDDYWGQGTLVTVSS
VL: B10 VL with Q27E, D28H, S30Y, Y53S, A91T, H92D, N93S, Y94I, R103K, L104V
B12: MAdCAM Antibody Table 1 Clone 63 (scFv)
scFv: EVQLLESGGGLVKPGGSLRLSCAASGFTFDDYAMHWVRQAPGKGLEWVASITSSSAFIDYAASVKGRFTISRDDSKNTLYLQMNSLKTEDTAVYYCARERVDWNSYFDLWGRGTLVTVSSGGGGSGGGGSGGGGSGGGGSEIVMTQSPATLSVSPGERATLSCRASQGISNSYLAWYQQKPGQAPRLLIYGASTRATGIPARFSGSGSGTEFTLTISSLQSEDFAVYYCQQYYTYPPTFGPGTKVDIK
B13: MAdCAM Antibody Table 2 Clone 55 (antibody, human IgG1, V domains shown)
VH: EVQLLESGGGLVQPGGSLRLSCAASGFTFDDFAMHWVRQAPGKGLEWVSGISGNGDSRYYADSVKGRFTISRDNSKNTLYLQMNSLRAEDTAVYYCARDASYGGNYGMDVWGQGTTVTVSS
VL: DIQMTQSPSSLSASVGDRVTITCQASQDIRNYLNWYQQKPGKAPKLLIYKASTLESGVPSRFSGSGSGTDFTLTISSLQPEDFATYYCQQANSFPLTFGPGTKVDIK
B14: MAdCAM Antibody Table 2 Clone 8 (antibody, human IgG1, V domains shown)
VH: QVQLVQSGAEVKKPGASVKVSCKASGYTFTGYHIHWVRQAPGQGLEWMGIINPSGGSTIYAQKFQGRVTMTRDTSTSTVYMELSSLRSEDTAVYYCAKDWSSWYLGPFDYWGQGTLVTVSS
VL: B9 VL with D28N, T30S, N31S, D32S, G34N, Q50A, E55Q, I94T, L96Y
B15: MAdCAM Antibody Table 2 Clone 7 (antibody, human IgG1, V domains shown)
VH: EVQLLESGGGLVQPGGSLRLSCAASGFTFSDYQMSWVRQAPGKGLEWVAIISHADGGFKDYADSVKGRFTISRDNSKNTLYLQMNSLRAEDTAVYYCAKPYSSGWSAVYYFDYWGQGTLVTVSS
VL: B9 VL with Q27R, D28G, Q50A, S53T, E55Q, S91A, T93S, I94F, L96W

molecular target: recombinant human MAdCAM protein (human) (UniProt Q13477); experiment: Octet

binding	Binder
binds	B1
binds	B2
binds	B3
binds	B4
binds	B5
binds	B6
binds	B7
binds	B8
binds	B9
binds	B10
binds	B11
binds	B12
binds	B13

molecular target: recombinant mouse MAdCAM-1 (mouse) (UniProt Q61826); experiment: Octet

binding	Binder
binds	B2
binds	B14
binds	B15
binds	B12
